This is one part of the list.
How the values were obtained:
Assay in all cases: log2 fold change, soluble protein after heating vs DMSO (PISA); higher = thermal stabilisation; K562 lysate, 10 uM; active = over 0.2 and 3.5 SD of the protein, either way, in both replicates (recomputed)
ibrutinib = compound: C=CC(=O)N1CCC[C@@H](n2nc(-c3ccc(Oc4ccccc4)cc3)c3c(N)ncnc32)C1 [ibrutinib]
Procedure, shortened: (§1)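 The values are log-two fold changes in thermal stability compared with solvent controls and come from duplicates. They were obtained by TMTpro 16plex LC-MS/MS, with channel sums equalised, on the supernatant after 21,000xg for 90 min. That supernatant came from crude K562 extract at 1 mg/mL protein treated with 10 μM compound for 30 min, heated for 3 min across 48°C-58°C, pooled and brought to 0.5% NP-40 at 4°C.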

By UniProt entry, the sequences of proteins in these tests, tags left out. Where a name states a change or a piece, a line headed by the entry shows the natural chain unless it says otherwise.
UniProt Q9Y217: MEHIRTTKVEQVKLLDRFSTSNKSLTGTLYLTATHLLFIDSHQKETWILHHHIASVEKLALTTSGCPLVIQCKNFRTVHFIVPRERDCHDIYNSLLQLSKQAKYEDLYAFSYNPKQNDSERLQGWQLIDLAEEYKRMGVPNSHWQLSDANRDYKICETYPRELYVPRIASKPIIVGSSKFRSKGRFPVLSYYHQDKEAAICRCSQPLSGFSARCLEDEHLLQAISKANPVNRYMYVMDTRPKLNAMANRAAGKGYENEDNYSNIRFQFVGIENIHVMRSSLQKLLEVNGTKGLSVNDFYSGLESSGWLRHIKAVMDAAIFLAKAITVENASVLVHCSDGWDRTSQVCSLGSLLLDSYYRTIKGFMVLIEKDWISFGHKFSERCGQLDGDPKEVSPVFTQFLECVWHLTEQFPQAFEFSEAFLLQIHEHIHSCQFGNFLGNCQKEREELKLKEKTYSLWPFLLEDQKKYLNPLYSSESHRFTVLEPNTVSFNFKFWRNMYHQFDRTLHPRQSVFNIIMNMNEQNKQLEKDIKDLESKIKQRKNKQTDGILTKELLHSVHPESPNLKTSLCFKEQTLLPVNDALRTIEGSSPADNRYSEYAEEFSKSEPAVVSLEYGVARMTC
UniProt Q96E29: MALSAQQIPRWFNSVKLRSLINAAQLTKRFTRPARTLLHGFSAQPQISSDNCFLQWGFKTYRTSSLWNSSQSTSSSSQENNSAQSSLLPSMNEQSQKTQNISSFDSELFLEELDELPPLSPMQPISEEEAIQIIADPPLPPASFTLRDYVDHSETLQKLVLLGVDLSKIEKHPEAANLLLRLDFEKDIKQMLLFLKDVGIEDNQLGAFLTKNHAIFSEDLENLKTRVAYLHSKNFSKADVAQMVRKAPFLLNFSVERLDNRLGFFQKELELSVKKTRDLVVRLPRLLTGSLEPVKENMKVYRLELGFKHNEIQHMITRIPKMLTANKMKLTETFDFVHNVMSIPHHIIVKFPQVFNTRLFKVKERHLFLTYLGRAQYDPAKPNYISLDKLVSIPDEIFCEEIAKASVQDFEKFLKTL
UniProt Q9ULH7: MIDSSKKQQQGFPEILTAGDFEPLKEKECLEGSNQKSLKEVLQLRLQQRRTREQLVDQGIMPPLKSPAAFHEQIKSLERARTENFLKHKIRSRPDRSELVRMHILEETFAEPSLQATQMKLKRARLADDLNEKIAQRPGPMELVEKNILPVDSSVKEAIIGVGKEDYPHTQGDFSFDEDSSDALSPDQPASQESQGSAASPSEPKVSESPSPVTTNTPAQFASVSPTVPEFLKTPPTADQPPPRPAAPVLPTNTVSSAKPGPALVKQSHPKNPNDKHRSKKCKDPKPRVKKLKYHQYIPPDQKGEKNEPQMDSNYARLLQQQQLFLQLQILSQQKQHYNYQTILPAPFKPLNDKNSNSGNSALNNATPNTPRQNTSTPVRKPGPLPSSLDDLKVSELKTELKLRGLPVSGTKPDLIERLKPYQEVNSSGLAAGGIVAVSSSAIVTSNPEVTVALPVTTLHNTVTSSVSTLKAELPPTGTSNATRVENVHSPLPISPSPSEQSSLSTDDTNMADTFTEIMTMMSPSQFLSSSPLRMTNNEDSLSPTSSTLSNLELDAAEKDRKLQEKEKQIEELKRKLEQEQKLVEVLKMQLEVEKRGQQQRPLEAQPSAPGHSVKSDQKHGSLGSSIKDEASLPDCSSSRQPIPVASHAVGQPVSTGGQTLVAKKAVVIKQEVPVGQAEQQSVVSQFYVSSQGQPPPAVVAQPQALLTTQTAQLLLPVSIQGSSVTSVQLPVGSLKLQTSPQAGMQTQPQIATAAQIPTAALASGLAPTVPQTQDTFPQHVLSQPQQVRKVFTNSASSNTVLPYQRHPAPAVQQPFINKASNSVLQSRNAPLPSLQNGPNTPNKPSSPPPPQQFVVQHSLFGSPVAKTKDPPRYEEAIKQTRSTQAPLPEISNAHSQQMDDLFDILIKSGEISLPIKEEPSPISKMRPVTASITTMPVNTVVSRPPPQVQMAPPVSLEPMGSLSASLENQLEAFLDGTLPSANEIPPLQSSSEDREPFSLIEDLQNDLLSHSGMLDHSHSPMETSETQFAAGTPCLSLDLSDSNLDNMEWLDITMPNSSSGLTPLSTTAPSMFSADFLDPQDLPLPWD
UniProt P03928: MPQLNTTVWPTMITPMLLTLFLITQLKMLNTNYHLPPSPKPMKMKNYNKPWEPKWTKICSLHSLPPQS
UniProt Q9BTC8: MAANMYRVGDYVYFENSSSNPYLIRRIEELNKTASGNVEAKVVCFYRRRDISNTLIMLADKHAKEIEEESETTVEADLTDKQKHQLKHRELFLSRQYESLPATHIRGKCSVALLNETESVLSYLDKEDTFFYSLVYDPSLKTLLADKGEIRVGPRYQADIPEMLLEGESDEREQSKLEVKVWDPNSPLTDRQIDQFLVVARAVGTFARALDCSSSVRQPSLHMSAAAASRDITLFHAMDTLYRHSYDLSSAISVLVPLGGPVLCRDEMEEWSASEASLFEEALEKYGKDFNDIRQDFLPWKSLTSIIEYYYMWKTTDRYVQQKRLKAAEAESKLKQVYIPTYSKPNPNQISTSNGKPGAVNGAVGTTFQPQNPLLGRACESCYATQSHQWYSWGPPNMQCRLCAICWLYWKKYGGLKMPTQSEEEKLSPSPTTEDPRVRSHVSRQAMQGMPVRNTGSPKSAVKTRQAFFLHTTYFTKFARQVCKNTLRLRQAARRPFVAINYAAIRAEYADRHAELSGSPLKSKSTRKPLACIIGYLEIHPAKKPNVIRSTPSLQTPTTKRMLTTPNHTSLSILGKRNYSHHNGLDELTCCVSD

[1] = compound: CC(=O)c1cnc2ccc(-c3cc(Cl)c(O)c(Cl)c3)nc2c1N[C@H]1CC[C@H](CN(C)C)CC1
Procedure, shortened: as §1

ralimetinib = compound: CC(C)(C)Cn1c(N)nc2ccc(-c3[nH]c(C(C)(C)C)nc3-c3ccc(F)cc3)nc21 [ralimetinib]
Procedure, shortened: as §1

[2] = compound: CC(C)(O)CC(=O)NCCn1ccc2ncnc(Nc3ccc(Oc4cccc(C(F)(F)F)c4)c(Cl)c3)c21
Procedure, shortened: as §1

[3] = compound: CC(C)C1=C2N=C(C=C(N2N=C1)NCC3=CC=CC=C3)NCCCCCCN
Procedure, shortened: as §1

[4] = compound: CC1=C(C(CC(=O)N1)C2=CC=C(C=C2)C(F)(F)F)C(=O)NC3=C(C=C4C(=C3)C=NN4)F
Procedure, shortened: as §1

[5] = compound: CC1=C(C2=C(C=C1)C(=O)C3=CC=CC=C3N2CCCN)C
Procedure, shortened: as §1

[6] = compound: CC1=C(C=C(C=C1)NC(=O)C2=CC(=CC=C2)C(C)(C)C#N)NC3=CC4=C(C=C3)N=CN(C4=O)C
Procedure, shortened: as §1

[7] = compound: CC1=C(C=C(C=C1)NC(=O)C2=CC(=CC=C2)N(C)C)NC(=O)C3=CC=C(C=C3)O
Procedure, shortened: as §1

[8] = compound: CC1=CC=C(C=C1)SC2=C3C=C(SC3=CN=C2)C(=O)N
Procedure, shortened: as §1

vemurafenib = compound: CCCS(=O)(=O)Nc1ccc(F)c(C(=O)c2c[nH]c3ncc(-c4ccc(Cl)cc4)cc23)c1F [vemurafenib]
Procedure, shortened: as §1

[9] = compound: CCCS(=O)(=O)Nc1ccc(F)c(C(=O)c2c[nH]c3ncc(Cl)cc23)c1F
Procedure, shortened: as §1

barasertib = compound: CCN(CCCOc1ccc2c(Nc3cc(CC(=O)Nc4cccc(F)c4)[nH]n3)ncnc2c1)CCOP(=O)(O)O [barasertib]
Procedure, shortened: as §1

[10] = compound: CC[C@@H]1C(=O)N(C)c2cnc(Nc3ccc(C(=O)NC4CCN(C)CC4)cc3OC)nc2N1C1CCCC1
Procedure, shortened: as §1

volasertib = compound: CC[C@@H]1C(=O)N(C)c2cnc(Nc3ccc(C(=O)N[C@H]4CC[C@H](N5CCN(CC6CC6)CC5)CC4)cc3OC)nc2N1C(C)C [volasertib]
Procedure, shortened: as §1

[11] = compound: CCn1c(C(=O)N(C2CC2)C2CC2)cc2c3c(ncn3C)c(Nc3cc(C)n(C)n3)nc21
Procedure, shortened: as §1

[12] = compound: CCn1cc(-c2ccnc3[nH]c(-c4cccc(CN(C)C)c4)cc23)c(-c2ccc(NC(=O)N(C)C)cc2)n1
Procedure, shortened: as §1

[13] = compound: CN1CCC(CNc2ccc3ncc(-c4cccc(OC(F)(F)F)c4)n3n2)CC1
Procedure, shortened: as §1

saracatinib = compound: CN1CCN(CCOc2cc(OC3CCOCC3)c3c(Nc4c(Cl)ccc5c4OCO5)ncnc3c2)CC1 [saracatinib]
Procedure, shortened: as §1

sotrastaurin = compound: CN1CCN(c2nc(C3=C(c4c[nH]c5ccccc45)C(=O)NC3=O)c3ccccc3n2)CC1 [sotrastaurin]
Procedure, shortened: as §1

Row | Target | log2 fold change (ibrutinib) | log2 fold change [1] | log2 fold change (ralimetinib) | log2 fold change [2] | log2 fold change [3] | log2 fold change [4] | log2 fold change [5] | log2 fold change [6] | log2 fold change [7] | log2 fold change [8] | log2 fold change (vemurafenib) | log2 fold change [9] | log2 fold change (barasertib) | log2 fold change [10] | log2 fold change (volasertib) | log2 fold change [11] | log2 fold change [12] | log2 fold change [13] | log2 fold change (saracatinib) | log2 fold change (sotrastaurin)
1 | MRPL50 (UniProt Q8N5N7) | inactive: 0.094 | inactive: -0.073 | inactive: 0.021 | inactive: -0.067 | inactive: -0.038 | inactive: -0.062 | inactive: -0.002 | inactive: 0.084 | inactive: -0.041 | inactive: 0.031 | inactive: 0.017 | inactive: -0.019 | inactive: 0.072 | inactive: 0.016 | inactive: 0.057 | inactive: -0.006 | inactive: -0.068 | inactive: 0.009 | inactive: 0.021 | inactive: -0.02
2 | MTMR6 (UniProt Q9Y217) | inactive: 0.011 | inactive: -0.02 | inactive: 0.041 | inactive: 0.026 | inactive: 0.043 | inactive: -0.044 | inactive: 0.006 | inactive: 0.121 | inactive: 0.011 | inactive: -0.006 | inactive: 0.038 | inactive: 0.012 | inactive: 0.018 | inactive: 0.006 | inactive: -0.024 | inactive: -0.055 | inactive: 0.217 | inactive: -0.08 | inactive: 0.024 | inactive: 0.087
3 | MRPL45 (UniProt Q9BRJ2) | inactive: 0.079 | inactive: -0.026 | inactive: -0.01 | inactive: 0.042 | inactive: 0.038 | inactive: 0.003 | inactive: -0.028 | inactive: 0.066 | inactive: 0.095 | inactive: -0.008 | inactive: 0.064 | inactive: -0.021 | inactive: 0.088 | inactive: -0.025 | inactive: -0.002 | inactive: -0.001 | inactive: -0.006 | inactive: -0.1 | inactive: 0.008 | inactive: -0.032
4 | MRPL57 (UniProt Q9BQC6) | inactive: 0.002 | inactive: -0.092 | inactive: 0.043 | inactive: 0.047 | inactive: -0.055 | inactive: -0.056 | inactive: -0.138 | inactive: -0.091 | inactive: -0.014 | inactive: 0.016 | inactive: 0.032 | inactive: -0.007 | inactive: -0.007 | inactive: -0.017 | inactive: -0.039 | inactive: -0.04 | inactive: 0.014 | inactive: -0.048 | inactive: 0.042 | inactive: -0.027
5 | MTERF3 (UniProt Q96E29) | inactive: -0.003 | inactive: -0.018 | inactive: 0.004 | inactive: -0.107 | inactive: 0.094 | inactive: -0.037 | inactive: -0.004 | inactive: -0.008 | inactive: -0.046 | inactive: -0.098 | inactive: 0.043 | inactive: -0.063 | inactive: 0.063 | inactive: -0.059 | inactive: 0.033 | inactive: -0.134 | inactive: -0.039 | inactive: -0.082 | inactive: 0.072 | inactive: -0.008
6 | MRTFB isoform 5 (UniProt Q9ULH7) | inactive: 0.026 | inactive: 0.052 | inactive: 0.014 | inactive: -0.01 | inactive: 0.041 | inactive: -0.014 | inactive: -0.017 | inactive: 0.089 | inactive: -0.001 | inactive: -0.026 | inactive: -0.025 | inactive: 0.036 | inactive: -0.042 | inactive: 0.028 | inactive: -0.096 | inactive: -0.023 | inactive: -0.004 | inactive: -0.049 | inactive: 0.03 | inactive: -0.016
7 | MT-ATP8 (UniProt P03928) | inactive: -0.035 | inactive: -0.052 | inactive: 0.005 | inactive: -0.109 | inactive: -0.087 | inactive: -0.082 | – | inactive: 0.153 | inactive: 0.047 | inactive: 0.104 | inactive: 0.033 | inactive: -0.036 | inactive: 0.057 | inactive: 0.063 | inactive: 0.015 | inactive: 0.128 | active: 0.711 | inactive: -0.144 | – | inactive: -0.084
8 | MTA3 (UniProt Q9BTC8) | inactive: -0.048 | inactive: -0.023 | inactive: 0.009 | inactive: 0.062 | inactive: 0.01 | inactive: -0.047 | inactive: 0.031 | inactive: -0.053 | inactive: -0.052 | inactive: -0.018 | inactive: 0.019 | inactive: 0.002 | inactive: 0.017 | inactive: 0.023 | inactive: -0.022 | inactive: -0.055 | inactive: -0.017 | inactive: -0.097 | inactive: 0.036 | inactive: -0.006

Source: the supplement of paper PMC10849652
